Laboratory results as given in paper PMC9795577.
Results are given in words; binding and its absence hold for the method and conditions named. For part of these data: A result given as binding can be weak or reduced; the word gives no strength.

Sequences of proteins named here, by UniProt entry; tags and fusion partners are left off. A change or cut given only in a name is not applied to a line headed by its entry. A line that says so, or that is headed by a name, gives the form on record, which may keep a tag or linker.
entire unstructured N-terminal region (including the YG domain) of Arabidopsis thaliana PEX13, amino acids 1–193 (Q9SRR0, form named): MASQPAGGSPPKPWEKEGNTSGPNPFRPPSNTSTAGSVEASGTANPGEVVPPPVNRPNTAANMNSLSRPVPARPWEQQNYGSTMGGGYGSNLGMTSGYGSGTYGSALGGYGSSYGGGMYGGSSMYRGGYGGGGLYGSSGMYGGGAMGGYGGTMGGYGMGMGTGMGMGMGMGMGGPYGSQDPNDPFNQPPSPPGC
UniProt A0A1L8FDW4: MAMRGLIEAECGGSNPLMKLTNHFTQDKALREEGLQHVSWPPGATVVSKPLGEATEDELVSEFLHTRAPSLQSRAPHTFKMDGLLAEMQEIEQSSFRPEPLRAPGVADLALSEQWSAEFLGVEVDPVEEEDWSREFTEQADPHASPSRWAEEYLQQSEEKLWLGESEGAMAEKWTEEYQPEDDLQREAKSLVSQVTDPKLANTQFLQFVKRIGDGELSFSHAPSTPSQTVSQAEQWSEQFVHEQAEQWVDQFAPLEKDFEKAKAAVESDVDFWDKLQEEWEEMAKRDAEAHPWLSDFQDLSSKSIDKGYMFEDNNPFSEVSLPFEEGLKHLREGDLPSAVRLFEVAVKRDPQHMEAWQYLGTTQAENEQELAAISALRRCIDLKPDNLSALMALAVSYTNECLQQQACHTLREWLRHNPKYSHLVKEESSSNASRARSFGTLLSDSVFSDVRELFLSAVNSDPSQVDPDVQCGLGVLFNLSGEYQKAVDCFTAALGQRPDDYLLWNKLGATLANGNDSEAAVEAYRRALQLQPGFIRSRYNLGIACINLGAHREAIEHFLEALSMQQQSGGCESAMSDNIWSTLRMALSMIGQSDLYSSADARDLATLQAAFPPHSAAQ

Columns and labels:
[1] = biological target: entire unstructured N-terminal region (including the YG domain) of Arabidopsis thaliana PEX13, amino acids 1–193 (Arabidopsis thaliana) (UniProt Q9SRR0); assay: hydrogel permeation assay (confocal microscopy); droplets of the PEX13 1-193 hydrogel (40 mg/ml) in 25 mM HEPES-KOH pH 7.8, 130 mM KCl; GFP fusion proteins or GFP alone added at 500 nM; enrichment inside the gel over buffer after 30 min; both purified
[2] = biological target: entire unstructured N-terminal region (including the YG domain) of Arabidopsis thaliana PEX13, amino acids 1–193 (Arabidopsis thaliana) (UniProt Q9SRR0); assay: hydrogel permeation assay (confocal microscopy); droplets of the PEX13 1-193 hydrogel (40 mg/ml) in 25 mM HEPES-KOH pH 7.8, 130 mM KCl; GFP or GFP-SKL with or without non-fluorescent PEX5 variants, all proteins at 500 nM; enrichment of the GFP cargo inside the gel over buffer after 30 min; both purified

binding [1]	binding [2]	Substance
binds	–	N-terminal region of PEX5 (amino acids 1–268, including all WxxxF/Y motifs) fused to GFP (from UniProt A0A1L8FDW4) (domain or fragment)
–	no binding (tested: 500 nM)	full-length PEX5 lacking all of the WxxxF/Y motifs (non-fluorescent) (from UniProt A0A1L8FDW4) (receptor)
binds weakly	–	cargo-binding TPR domain of PEX5 (amino acids 260–579) fused to GFP (from UniProt A0A8J0TE97) (domain or fragment)
